Results are given in words; binding and its absence hold for the method and conditions named. Some entries that bind do so weakly or less than the wild type.
B1: SH-01 (antibody, V domains shown, not shown: large carriers)
VH: EVQLQQSGPELVKPGASVKISCKASGYTFTDYYINWVKQKPGQGLEWIGWIYPGSGNTDHNEKFKDKATLTVDTSSSTAYMQLSSLTSEDTAVYFCLRFLLRSAYWGQGTLVTVSA
VL: DIVMTQSQKFMSTSVGDRVSITCKASQNVGTAVAWYQQKPGQSPKLLIYSASNRYTGVPDRFTGSGSGTDFTLTISNMQSEDLADYFCQQYSSYPLTFGAGTKLELK
B2: SH-02 (antibody, V domains shown, not shown: large carriers)
VH: B1 VH
VL: DIQMTQSPSSLSASLGERVSLTCRASQEISGYLSWLQQKPDGTIKRLIYAASTLDSGVPKRFSGSRSGSDYSLTISSLESEDFADYYCLQYASYPWTFGGGTKLEIK

Sequences of proteins named here, by UniProt entry; tags and fusion partners are left off. A change or cut given only in a name is not applied to a line headed by its entry. Residues count along the entry.
UniProt Q08830, residues 23-312: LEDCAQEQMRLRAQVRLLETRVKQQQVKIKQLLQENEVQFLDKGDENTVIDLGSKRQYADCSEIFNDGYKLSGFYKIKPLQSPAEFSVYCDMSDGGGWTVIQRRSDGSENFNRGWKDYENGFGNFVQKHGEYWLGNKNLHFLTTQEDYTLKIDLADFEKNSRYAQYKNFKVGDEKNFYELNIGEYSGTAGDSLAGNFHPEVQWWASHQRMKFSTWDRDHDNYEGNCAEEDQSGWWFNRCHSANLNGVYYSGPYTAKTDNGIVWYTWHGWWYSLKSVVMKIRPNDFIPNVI

Target: 人FGL1-his蛋白(Sinobio;Cat:13484-H08B) (human) (UniProt Q08830)
Test: ELISA, plate coated with human FGL1-his

Binder | binding
B1 | binds
B2 | binds
